From article PMC12170185 come the findings set out here.

Protein sequences, listed by entry. Tags and fused reporters are not part of them. Lines headed by an entry give the natural chain unless they say otherwise; changes in a name come on top.
UniProt Q9HAU5: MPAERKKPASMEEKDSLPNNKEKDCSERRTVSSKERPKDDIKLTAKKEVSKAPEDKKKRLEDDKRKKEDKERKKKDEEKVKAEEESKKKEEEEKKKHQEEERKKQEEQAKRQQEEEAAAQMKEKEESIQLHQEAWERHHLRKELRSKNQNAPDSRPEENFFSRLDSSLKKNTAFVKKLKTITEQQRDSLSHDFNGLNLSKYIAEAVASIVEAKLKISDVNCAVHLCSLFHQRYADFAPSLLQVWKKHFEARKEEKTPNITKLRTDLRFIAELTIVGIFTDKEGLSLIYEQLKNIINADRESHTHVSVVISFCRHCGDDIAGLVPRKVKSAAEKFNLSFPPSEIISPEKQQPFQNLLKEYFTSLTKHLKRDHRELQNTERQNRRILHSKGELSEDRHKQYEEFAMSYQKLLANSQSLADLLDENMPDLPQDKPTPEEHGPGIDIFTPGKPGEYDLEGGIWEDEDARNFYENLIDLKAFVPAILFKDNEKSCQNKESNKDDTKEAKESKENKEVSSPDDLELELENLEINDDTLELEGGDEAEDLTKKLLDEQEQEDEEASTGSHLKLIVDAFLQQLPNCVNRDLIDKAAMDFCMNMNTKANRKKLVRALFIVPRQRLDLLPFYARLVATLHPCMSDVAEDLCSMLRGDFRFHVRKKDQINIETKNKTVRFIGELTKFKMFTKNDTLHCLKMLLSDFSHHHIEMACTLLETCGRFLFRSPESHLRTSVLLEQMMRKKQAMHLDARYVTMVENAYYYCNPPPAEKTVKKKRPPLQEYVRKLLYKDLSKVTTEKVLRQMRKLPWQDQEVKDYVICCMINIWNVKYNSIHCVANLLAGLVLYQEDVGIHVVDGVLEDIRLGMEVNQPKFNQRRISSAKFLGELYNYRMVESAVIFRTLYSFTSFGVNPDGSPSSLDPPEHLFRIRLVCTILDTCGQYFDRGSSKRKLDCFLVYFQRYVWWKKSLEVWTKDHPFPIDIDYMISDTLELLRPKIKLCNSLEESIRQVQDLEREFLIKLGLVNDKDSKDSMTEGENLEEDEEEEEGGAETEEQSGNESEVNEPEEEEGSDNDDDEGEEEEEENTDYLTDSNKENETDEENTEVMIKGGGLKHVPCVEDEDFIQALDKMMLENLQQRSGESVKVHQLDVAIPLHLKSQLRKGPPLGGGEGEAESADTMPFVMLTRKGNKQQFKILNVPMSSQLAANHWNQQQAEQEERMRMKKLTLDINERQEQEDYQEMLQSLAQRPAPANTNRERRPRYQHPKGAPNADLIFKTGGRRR

No constants are given. Whether binding was seen depends on the method and setting.

Common to all, as to experiment: native gel or EMSA; the EMSA gels stained for protein with Coomassie; UPF2 variants with no RNA, with ss-RNA or with hp-RNA (250 nM each); shift of the protein bands looked for; both purified
On the technique in general: In EMSA bound probe runs differently from free probe, usually more slowly.

Experiment [1] concerns the target UPF2 MIF4G domain-1 (residues 120-486) (UniProt Q9HAU5).
For experiment [2], the target named is UPF2 MIF4G domain-2 (residues 455-757) (UniProt Q9HAU5).
For experiment [3], the target named is UPF2 MIF4G domain-3 (residues 761-1054) (UniProt Q9HAU5).
In experiment [4] the target is UPF2 MIF4G domains 1 and 2 (residues 120-757) (UniProt Q9HAU5).
For experiment [5], the target named is UPF2 MIF4G domains 2 and 3 (residues 455-1054) (UniProt Q9HAU5).

Turning to “UPF2 MIF4G domain-1 (residues 120-486) (from UniProt Q9HAU5 120-486) (domain or fragment)”, in experiment [1], the binding result is “no binding”.

“UPF2 MIF4G domain-2 (residues 455-757) (from UniProt Q9HAU5 455-757) (domain or fragment)”: in experiment [2], the binding entry is reported as “no binding”.

Turning to “UPF2 MIF4G domain-3 (residues 761-1054) (from UniProt Q9HAU5 761-1054) (domain or fragment)”, the binding result in experiment [3] is “no binding”.

Turning to “UPF2 MIF4G domains 1 and 2 (residues 120-757) (from UniProt Q9HAU5 120-757) (domain or fragment)”, in experiment [4], the binding entry is “no binding”.

As to “UPF2 MIF4G domains 2 and 3 (residues 455-1054) (from UniProt Q9HAU5 455-1054) (domain or fragment)”, in experiment [5], the binding result was “no binding”.
